Experimental findings from patent CN117820472A are described below.

The chains behind the UniProt entries cited, without tags or fusion partners. Where a name states a change or a piece, a line headed by the entry shows the natural chain unless it says otherwise.
UniProt P10636: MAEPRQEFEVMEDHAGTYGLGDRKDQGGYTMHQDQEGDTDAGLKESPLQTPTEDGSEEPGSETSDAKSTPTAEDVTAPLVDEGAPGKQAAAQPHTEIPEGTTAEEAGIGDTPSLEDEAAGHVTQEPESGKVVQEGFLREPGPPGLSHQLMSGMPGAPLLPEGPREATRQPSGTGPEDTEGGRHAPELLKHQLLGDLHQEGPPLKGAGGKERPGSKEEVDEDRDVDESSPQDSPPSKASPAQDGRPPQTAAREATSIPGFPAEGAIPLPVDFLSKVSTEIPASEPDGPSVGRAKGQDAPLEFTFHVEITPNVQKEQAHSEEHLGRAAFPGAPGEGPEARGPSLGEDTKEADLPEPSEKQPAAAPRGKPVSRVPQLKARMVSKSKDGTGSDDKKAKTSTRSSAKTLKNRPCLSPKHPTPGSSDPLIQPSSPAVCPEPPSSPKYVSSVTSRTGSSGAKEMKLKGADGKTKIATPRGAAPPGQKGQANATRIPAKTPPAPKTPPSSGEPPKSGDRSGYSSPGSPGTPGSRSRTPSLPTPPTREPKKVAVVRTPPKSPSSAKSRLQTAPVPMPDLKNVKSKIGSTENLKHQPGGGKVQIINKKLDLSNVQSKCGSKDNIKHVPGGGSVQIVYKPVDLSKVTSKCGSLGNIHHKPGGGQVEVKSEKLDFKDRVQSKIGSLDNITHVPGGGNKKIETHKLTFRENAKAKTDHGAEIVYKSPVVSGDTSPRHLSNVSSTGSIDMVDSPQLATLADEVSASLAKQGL

The target in the assay is 经过磷酸化处理的全长Tau蛋白p-Tau (UniProt P10636). Put plainly: sandwich ELISA, fixed antibody paired with the p-Tau 181 antibodies. (ELISA stands for enzyme-linked immunosorbent assay.)

Results are given in words; binding and its absence hold for the method and conditions named. Some binding calls cover weakened binding; strength is not graded here.

B1: Rabbit-Anti-Tau-mAb-A (antibody, V domains shown)
VH: QSVEESGGRLVKPDETLTLTCTVSGIDLSTYAMGWVRQAPGEGLEWIATIGISGGTYYASWAKGRFTISKTSTTVDLKMTSLTAADTATYFCASSRATTYPIWGPGTLVTVSS
VL: DIVMTQTASPVSAAVGGTVTINCQASQSISTALAWYQQKPGQPPKLLIYRASTLASGVPSRFSGSGSGTQFTLTISDLECADAATYYCQGDYYTKSTSYLNGFGGGTEVVVK
Take B1: the binding entry was “binds”.
